Assay results published in US20250154171A1, “RAS INHIBITORS” (Revolution Medicines, Inc., priority 2023, published 2025).
pIC50: −log10 of the molar value. Some results were stated once for a whole list of compounds, not compound by compound.

Protein sequences, listed by entry. Tags and fused reporters are not part of them. Lines headed by an entry give the natural chain unless they say otherwise; changes in a name come on top. Residues count along the entry.
UniProt P01116, 1-188 isoform P01116-2 G12V: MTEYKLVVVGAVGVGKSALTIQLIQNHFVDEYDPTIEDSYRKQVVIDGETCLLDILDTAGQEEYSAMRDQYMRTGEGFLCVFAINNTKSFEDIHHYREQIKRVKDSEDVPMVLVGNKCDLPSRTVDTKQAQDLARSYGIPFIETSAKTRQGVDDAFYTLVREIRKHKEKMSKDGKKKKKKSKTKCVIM
UniProt P62937, whole entry: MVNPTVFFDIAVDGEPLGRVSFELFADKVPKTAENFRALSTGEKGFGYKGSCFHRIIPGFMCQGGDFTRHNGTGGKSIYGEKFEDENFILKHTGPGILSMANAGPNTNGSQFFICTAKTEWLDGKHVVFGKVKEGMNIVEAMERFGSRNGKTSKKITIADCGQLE

Experiments:
[1] = test system: Capan-1 (K-Ras G12V); assay: CellTiter-Glo cell viability assay, Capan-1; format: cell-based, human; details: 5-day treatment, Capan-1 versus A375
[2] = target: K-RasG12V (Homo sapiens, UniProt P01116+P62937, G12V); assay: Disruption of BRAF RBD interaction with K-Ras (TR-FRET / MOA assay), K-RasG12V; format: biochemical; details: TR-FRET with cyclophilin A and GST-BRAF RBD, read-out: IC50 with respect to K-RasG12V (disruption of BRAF RBD interaction)

SMILES | decrease in cell viability with respect to KRAS G12V (Capan-1) versus wild-type KRAS (A375) [1] | pIC50 [2]
CO[C@@H](C)c1ncc(N2CCN(C3CC3)CC2)cc1-c1c2c3cc(ccc3n1CCOC1CCOCC1)-c1nc(co1)[C@@H](OCC(F)F)[C@H](NC(=O)[C@@H]1[C@@H](C)[C@H]1c1cscn1)C(=O)N1CCC[C@H](N1)C(=O)OCC(C)(C)C2 (racemic) [Example A696] | greater decrease in cell viability | > 6.00
CCO[C@@H]1c2nc(cs2)-c2ccc3c(c2)c(c(-c2cc(N4CCN(C)CC4)cnc2[C@H](C)OC)n3CCOC(C)C)CC(C)(C)COC(=O)[C@@H]2CCCN(N2)C(=O)[C@H]1NC(=O)[C@@H]1CCCO1 (racemic) [Example A697] | greater decrease in cell viability | > 6.00
CCO[C@@H]1c2nc(cs2)-c2ccc3c(c2)c(c(-c2cc(N4CCN(C)CC4)cnc2[C@H](C)OC)n3CCOC(C)C)CC(C)(C)COC(=O)[C@@H]2CCCN(N2)C(=O)[C@H]1NC(=O)[C@]1(C#N)CCCO1 (racemic) [Example A698] | greater decrease in cell viability | > 6.00
CCO[C@@H]1c2nc(cs2)-c2ccc3c(c2)c(c(-c2cc(N4CCN(C)CC4)cnc2[C@H](C)OC)n3CCOC(C)C)CC(C)(C)COC(=O)[C@@H]2CCCN(N2)C(=O)[C@H]1NC(=O)C1(C#N)CCCO1 (mixture of isomers) [Example A699] | greater decrease in cell viability | > 6.00
CO[C@@H](C)c1ncccc1-c1c2c3cc(ccc3n1C1COC1)-c1csc(n1)[C@@H](N1CCOCC1)[C@H](NC(=O)[C@@H]1[C@@H](C)[C@H]1c1cocn1)C(=O)N1CCC[C@H](N1)C(=O)OCC(C)(C)C2 (racemic) [Example A700] | greater decrease in cell viability | > 6.00
CO[C@@H](C)c1ncccc1-c1c2c3cc(ccc3n1C1COC1)-c1csc(n1)[C@@H](N1CCOCC1)[C@H](NC(=O)C13CC(CO1)C3)C(=O)N1CCC[C@H](N1)C(=O)OCC(C)(C)C2 (racemic) [Example A701] | greater decrease in cell viability | > 6.00
CO[C@@H](C)c1ncc(N2CCN(C3CC3)CC2)cc1-c1c2c3cc(ccc3n1CCOC1CCOCC1)-c1nc(co1)[C@@H](OCC(F)F)[C@H](NC(=O)[C@@H]1[C@@H](C)[C@H]1c1cocn1)C(=O)N1N[C@H](C(=O)OCC(C)(C)C2)C2CC1C2 (racemic) [Example A702] | greater decrease in cell viability | > 6.00
CO[C@@H](C)c1ncc(N2CCN(C3CC3)CC2)cc1-c1c2c3cc(ccc3n1CCOC1CCOCC1)-c1nc(co1)[C@@H](OCC(F)F)[C@H](NC(=O)C1[C@H](C)[C@H]1C)C(=O)N1CCC[C@H](N1)C(=O)OCC(C)(C)C2 (mixture of isomers) [Example A704] | greater decrease in cell viability | > 6.00
CO[C@@H](C)c1ncc(N2CCN(C3COC3)CC2)cc1-c1c2c3cc(ccc3n1CCOC1CCOCC1)-c1nc(co1)[C@@H](OCC(F)F)[C@H](NC(=O)[C@@H]1[C@@H](C)[C@H]1c1cscn1)C(=O)N1CCC[C@H](N1)C(=O)OCC(C)(C)C2 (racemic) [Example A705] | greater decrease in cell viability | > 6.00
CO[C@@H](C)c1ncc(N2CCN(C3CC3)CC2)cc1-c1c2c3cc(ccc3n1CCOC1CCOCC1)-c1nc(co1)[C@@H](OCC(F)F)[C@H](NC(=O)[C@@H]1[C@@H](C)[C@H]1c1cocn1)C(=O)N1CCC[C@H](N1)C(=O)OCC(C)(C)C2 (racemic) [Example A708] | greater decrease in cell viability | > 6.00
CO[C@@H](C)c1ncc(N2CCN(C3CC3)CC2)cc1-c1c2c3cc(ccc3n1CCOC1CCOCC1)-c1csc(n1)[C@@H](OCC(F)F)[C@H](NC(=O)N1CC(F)(F)[C@H]1[C@@H](C)O)C(=O)N1CCC[C@H](N1)C(=O)OCC(C)(C)C2 (racemic) [Example A710] | greater decrease in cell viability | > 6.00
CO[C@@H](C)c1ncc(N2CCN(C3CC3)CC2)cc1-c1c2c3cc(ccc3n1CCOC1CCOCC1)-c1nc(co1)[C@@H](N1CCCC1)[C@H](NC(=O)[C@@H]1[C@@H](C)[C@H]1c1cocn1)C(=O)N1CCC[C@H](N1)C(=O)OCC(C)(C)C2 (racemic) [Example A711] | greater decrease in cell viability | > 6.00
CCn1c(-c2cccnc2[C@H](C)OC)c2c3cc(ccc31)-c1csc(n1)[C@@H](N1CCOC[C@@H]1C#N)[C@H](NC(=O)[C@H]1[C@H](C)[C@@H]1C)C(=O)N1CCC[C@H](N1)C(=O)OCC(C)(C)C2 (racemic) [Example A713] | greater decrease in cell viability | > 6.00
CCO[C@@H]1c2nc(cs2)-c2ccc3c(c2)c(c(-c2cc(N4CCN(C)CC4)cnc2[C@H](C)OC)n3CCOC(C)C)CC(C)(C)COC(=O)[C@@H]2CCCN(N2)C(=O)[C@H]1NC(=O)C12CCC(CC1)O2 (racemic) [Example A714] | greater decrease in cell viability | > 6.00
CCO[C@@H]1c2nc(cs2)-c2ccc3c(c2)c(c(-c2cc(N4CCN(C)CC4)cnc2[C@H](C)OC)n3CCOC(C)C)CC(C)(C)COC(=O)[C@@H]2CCCN(N2)C(=O)[C@H]1NC(=O)C12CC(C1)C(C)O2 (mixture of isomers) [Example A715] | greater decrease in cell viability | > 6.00
CO[C@@H](C)c1ncc(N2CCN(C3CC3)CC2)cc1-c1c2c3cc(ccc3n1CCOC1CCOCC1)-c1csc(n1)[C@@H](N1CCCC1)[C@H](NC(=O)C1(C#N)CCC1)C(=O)N1CCC[C@H](N1)C(=O)OCC(C)(C)C2 (racemic) [Example A716] | greater decrease in cell viability | > 6.00
CO[C@@H](C)c1ncc(N2CCN(C3CC3)CC2)cc1-c1c2c3cc(ccc3n1CCOC1CCOCC1)-c1csc(n1)[C@@H](OCC(F)F)[C@H](NC(=O)N1CC[C@H]1[C@H](O)CF)C(=O)N1CCC[C@H](N1)C(=O)OCC(C)(C)C2 (racemic) [Example A717] | greater decrease in cell viability | > 6.00
CO[C@@H](C)c1ncc(N2CCN(C3CC3)CC2)cc1-c1c2c3cc(ccc3n1CCOC1CCOCC1)-c1csc(n1)[C@@H](N1CCCC1)[C@H](NC(=O)C13CC(CO1)C3)C(=O)N1CCC[C@H](N1)C(=O)OCC(C)(C)C2 (racemic) [Example A718] | greater decrease in cell viability | > 6.00
CO[C@@H](C)c1ncc(N2CCN(C3CC3)CC2)cc1-c1c2c3cc(ccc3n1CCOC1CCOCC1)-c1csc(n1)[C@@H](N1CCCC1)[C@H](NC(=O)C1CCO1)C(=O)N1CCC[C@H](N1)C(=O)OCC(C)(C)C2 (mixture of isomers) [Example A719] | greater decrease in cell viability | > 6.00
CO[C@@H](C)c1ncc(N2CCN(C3CC3)CC2)cc1-c1c2c3cc(ccc3n1CCOC1CCOCC1)-c1csc(n1)[C@@H](N1CCCC1)[C@H](NC(=O)N1CC[C@H]1C)C(=O)N1CCC[C@H](N1)C(=O)OCC(C)(C)C2 (racemic) [Example A720] | greater decrease in cell viability | > 6.00
CO[C@@H](C)c1ncc(N2CCN(C3CC3)CC2)cc1-c1c2c3cc(ccc3n1CCOC1CCOCC1)-c1csc(n1)[C@@H](OCC(F)F)[C@H](NC(=O)[C@@H]1[C@@H](C)[C@H]1c1ccsn1)C(=O)N1CCC[C@H](N1)C(=O)OCC(C)(C)C2 (racemic) [Example A721] | greater decrease in cell viability | > 6.00
CO[C@@H](C)c1ncc(N2CCN(C3CC3)CC2)cc1-c1c2c3cc(ccc3n1CCOC1CCOCC1)-c1csc(n1)[C@@H](OCC(F)F)[C@H](NC(=O)[C@H]1[C@H](C)[C@@H]1c1ccsn1)C(=O)N1CCC[C@H](N1)C(=O)OCC(C)(C)C2 (racemic) [Example A722] | greater decrease in cell viability | > 6.00
CCO[C@@H]1c2nc(cs2)-c2ccc3c(c2)c(c(-c2cc(N4CCN(C5CC5)CC4)cnc2[C@H](C)OC)n3CCOC2CCOCC2)CC(C)(C)COC(=O)[C@H]2NN(C(=O)[C@H]1NC(=O)N1CC[C@H]1C)C1CC2C1 (racemic) [Example A723] | greater decrease in cell viability | > 6.00
CO[C@@H](C)c1ncc(N2CCN(C3CC3)CC2)cc1-c1c2c3cc(ccc3n1CCOC1CCOCC1)-c1csc(n1)[C@@H](OCC(F)F)[C@H](NC(=O)[C@@H]1[C@@H](C)[C@H]1c1cocn1)C(=O)N1N[C@H](C(=O)OCC(C)(C)C2)C2CC1C2 (racemic) [Example A724] | greater decrease in cell viability | > 6.00
CCO[C@@H]1c2nc(cs2)-c2ccc3c(c2)c(c(-c2cc(N4CCN(C5CC5)CC4)cnc2[C@H](C)OC)n3CCOC2COC2)CC(C)(C)COC(=O)[C@@H]2CCCN(N2)C(=O)[C@H]1NC(=O)[C@@H]1[C@@H](C)[C@H]1C(C)C (racemic) [Example A725] | greater decrease in cell viability | > 6.00
CO[C@@H](C)c1ncc(N2CCN(C3CC3)CC2)cc1-c1c2c3cc(ccc3n1CCOC1CCOCC1)-c1csc(n1)[C@@H](N1CCOCC1)[C@H](NC(=O)N1CC[C@H]1C)C(=O)N1N[C@H](C(=O)OCC(C)(C)C2)C2CC1C2 (racemic) [Example A726] | greater decrease in cell viability | > 6.00
